The record followed here is paper doi:10.1101/521369.

In the assay the target is T1, eGFP-PLCβ1 (UniProt P10687).
T1 sequence: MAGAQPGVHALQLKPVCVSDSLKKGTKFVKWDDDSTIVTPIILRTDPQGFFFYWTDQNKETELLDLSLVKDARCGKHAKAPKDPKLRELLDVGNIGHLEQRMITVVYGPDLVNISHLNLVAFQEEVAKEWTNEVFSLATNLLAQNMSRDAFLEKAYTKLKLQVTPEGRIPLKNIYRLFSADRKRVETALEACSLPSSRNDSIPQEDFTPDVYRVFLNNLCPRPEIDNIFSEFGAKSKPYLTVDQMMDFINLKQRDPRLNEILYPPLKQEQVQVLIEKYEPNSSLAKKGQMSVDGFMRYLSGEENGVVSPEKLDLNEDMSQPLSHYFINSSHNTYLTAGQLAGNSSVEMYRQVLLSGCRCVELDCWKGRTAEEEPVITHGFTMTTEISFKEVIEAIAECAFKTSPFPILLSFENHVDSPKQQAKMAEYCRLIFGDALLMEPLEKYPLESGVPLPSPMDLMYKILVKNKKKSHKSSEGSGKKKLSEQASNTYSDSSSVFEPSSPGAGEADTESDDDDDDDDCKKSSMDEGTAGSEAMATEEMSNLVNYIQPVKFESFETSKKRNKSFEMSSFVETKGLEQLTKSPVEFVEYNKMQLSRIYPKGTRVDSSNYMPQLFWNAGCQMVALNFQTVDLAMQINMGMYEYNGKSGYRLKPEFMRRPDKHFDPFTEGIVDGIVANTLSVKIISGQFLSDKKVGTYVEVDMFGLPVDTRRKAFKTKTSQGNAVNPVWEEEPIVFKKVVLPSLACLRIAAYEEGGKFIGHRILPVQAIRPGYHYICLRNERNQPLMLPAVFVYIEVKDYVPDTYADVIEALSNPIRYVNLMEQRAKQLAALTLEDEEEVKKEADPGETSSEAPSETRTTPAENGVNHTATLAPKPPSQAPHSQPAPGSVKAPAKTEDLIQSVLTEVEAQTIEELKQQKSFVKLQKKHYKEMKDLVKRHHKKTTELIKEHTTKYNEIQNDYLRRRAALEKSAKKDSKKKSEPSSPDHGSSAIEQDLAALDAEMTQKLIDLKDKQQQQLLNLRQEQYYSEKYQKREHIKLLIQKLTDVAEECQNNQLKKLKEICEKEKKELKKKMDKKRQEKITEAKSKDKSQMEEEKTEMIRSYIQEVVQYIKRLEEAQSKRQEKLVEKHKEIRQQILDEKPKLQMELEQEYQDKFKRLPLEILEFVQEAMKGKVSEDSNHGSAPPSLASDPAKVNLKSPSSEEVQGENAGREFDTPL
The experiment in a line: co-IP.

These are yes or no findings as the source states them, for the method shown. Binding seen in cells or lysates may run through a third protein. Where a sequence is shown, tags or fusion partners need not be part of it.

For “IQGAP2, endogenous (rat (endogenous in PC12))”, the binding result is on record as “no binding”.
